Measurements as given in article PMC4598761.
No constants are given. Whether binding was seen depends on the method and setting. Where a sequence is shown, tags or fusion partners need not be part of it.

By UniProt entry, the sequences of proteins in these tests, tags left out.
UniProt Q9Y3R4: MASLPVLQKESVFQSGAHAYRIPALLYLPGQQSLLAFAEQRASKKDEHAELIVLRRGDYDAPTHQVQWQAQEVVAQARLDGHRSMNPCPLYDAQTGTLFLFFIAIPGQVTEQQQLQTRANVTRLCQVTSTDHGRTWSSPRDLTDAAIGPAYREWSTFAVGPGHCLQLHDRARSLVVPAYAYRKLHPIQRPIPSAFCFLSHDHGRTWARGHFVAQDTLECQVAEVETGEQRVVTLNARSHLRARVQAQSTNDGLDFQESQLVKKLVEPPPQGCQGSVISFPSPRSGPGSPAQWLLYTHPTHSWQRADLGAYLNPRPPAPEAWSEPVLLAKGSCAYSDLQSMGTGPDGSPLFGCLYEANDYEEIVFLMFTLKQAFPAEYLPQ

Target: GST-NEU2 (recombinant cytosolic sialidase NEU2) (human) (UniProt Q9Y3R4)
Test: pull-down; purified recombinant proteins mixed overnight at 4 °C (1.5 mg/mL each), precipitated with 20 μL Glutathione-Sepharose 4B for 1 h at 4 °C (GST or GST-tagged protein held), washed three times with PBS, western blotting; both purified

B1: (His)6-tagged yeast PNGase (enzyme, UniProt Q02890 1-363)
chain: MGEVYEKNNIDFDSIAKMLLIKYKDFILSKFKKAAPVENIRFQNLVHTNQFAQGVLGQSQHLCTVYDNPSWHSIVLETLDLDLIYKNVDKEFAKDGHAEGENIYTDYLVKELLRYFKQDFFKWCNKPDCNHCGQNTSENMTPLGSQGPNGEESKFNCGTVEIYKCNRCGNITRFPRYNDPIKLLETRKGRCGEWCNLFTLILKSFGLDVRYVWNREDHVWCEYFSNFLNRWVHVDSCEQSFDQPYIYSINWNKKMSYCIAFGKDGVVDVSKRYILQNELPRDQIKEEDLKFLCQFITKRLRYSLNDDEIYQLACRDEQEQIELIRGKTQETKSESVSAASKSSNRGRESGSADWKAQRGEDGK
In the case of B1, the binding is reported as “no binding”.
